Test results published in paper PMC8144412.

Protein sequences, listed by entry. Tags and fused reporters are not part of them.
UniProt Q13620: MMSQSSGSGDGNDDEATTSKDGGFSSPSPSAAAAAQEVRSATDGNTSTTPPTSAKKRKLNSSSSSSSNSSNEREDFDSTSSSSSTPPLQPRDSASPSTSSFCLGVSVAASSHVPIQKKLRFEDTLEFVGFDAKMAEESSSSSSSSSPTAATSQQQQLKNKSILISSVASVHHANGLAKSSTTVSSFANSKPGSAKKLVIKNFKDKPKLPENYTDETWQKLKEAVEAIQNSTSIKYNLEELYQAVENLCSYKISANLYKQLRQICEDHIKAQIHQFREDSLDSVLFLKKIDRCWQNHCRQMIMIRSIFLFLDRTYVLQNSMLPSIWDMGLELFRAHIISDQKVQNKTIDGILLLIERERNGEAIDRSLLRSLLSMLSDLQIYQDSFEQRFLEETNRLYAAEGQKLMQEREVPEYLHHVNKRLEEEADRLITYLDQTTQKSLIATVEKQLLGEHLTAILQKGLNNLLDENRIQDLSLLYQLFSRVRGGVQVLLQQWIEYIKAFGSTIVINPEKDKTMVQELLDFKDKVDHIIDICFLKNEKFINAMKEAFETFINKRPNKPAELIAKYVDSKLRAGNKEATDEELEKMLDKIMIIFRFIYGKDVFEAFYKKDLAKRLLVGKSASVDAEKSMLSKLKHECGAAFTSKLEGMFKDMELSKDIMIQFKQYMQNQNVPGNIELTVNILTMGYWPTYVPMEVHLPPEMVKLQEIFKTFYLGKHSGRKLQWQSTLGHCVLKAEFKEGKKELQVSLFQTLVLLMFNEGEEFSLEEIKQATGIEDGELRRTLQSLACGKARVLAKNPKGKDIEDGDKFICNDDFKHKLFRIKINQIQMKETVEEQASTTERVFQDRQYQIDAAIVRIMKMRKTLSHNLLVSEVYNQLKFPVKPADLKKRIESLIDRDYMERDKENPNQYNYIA
UniProt Q7Z6Z7: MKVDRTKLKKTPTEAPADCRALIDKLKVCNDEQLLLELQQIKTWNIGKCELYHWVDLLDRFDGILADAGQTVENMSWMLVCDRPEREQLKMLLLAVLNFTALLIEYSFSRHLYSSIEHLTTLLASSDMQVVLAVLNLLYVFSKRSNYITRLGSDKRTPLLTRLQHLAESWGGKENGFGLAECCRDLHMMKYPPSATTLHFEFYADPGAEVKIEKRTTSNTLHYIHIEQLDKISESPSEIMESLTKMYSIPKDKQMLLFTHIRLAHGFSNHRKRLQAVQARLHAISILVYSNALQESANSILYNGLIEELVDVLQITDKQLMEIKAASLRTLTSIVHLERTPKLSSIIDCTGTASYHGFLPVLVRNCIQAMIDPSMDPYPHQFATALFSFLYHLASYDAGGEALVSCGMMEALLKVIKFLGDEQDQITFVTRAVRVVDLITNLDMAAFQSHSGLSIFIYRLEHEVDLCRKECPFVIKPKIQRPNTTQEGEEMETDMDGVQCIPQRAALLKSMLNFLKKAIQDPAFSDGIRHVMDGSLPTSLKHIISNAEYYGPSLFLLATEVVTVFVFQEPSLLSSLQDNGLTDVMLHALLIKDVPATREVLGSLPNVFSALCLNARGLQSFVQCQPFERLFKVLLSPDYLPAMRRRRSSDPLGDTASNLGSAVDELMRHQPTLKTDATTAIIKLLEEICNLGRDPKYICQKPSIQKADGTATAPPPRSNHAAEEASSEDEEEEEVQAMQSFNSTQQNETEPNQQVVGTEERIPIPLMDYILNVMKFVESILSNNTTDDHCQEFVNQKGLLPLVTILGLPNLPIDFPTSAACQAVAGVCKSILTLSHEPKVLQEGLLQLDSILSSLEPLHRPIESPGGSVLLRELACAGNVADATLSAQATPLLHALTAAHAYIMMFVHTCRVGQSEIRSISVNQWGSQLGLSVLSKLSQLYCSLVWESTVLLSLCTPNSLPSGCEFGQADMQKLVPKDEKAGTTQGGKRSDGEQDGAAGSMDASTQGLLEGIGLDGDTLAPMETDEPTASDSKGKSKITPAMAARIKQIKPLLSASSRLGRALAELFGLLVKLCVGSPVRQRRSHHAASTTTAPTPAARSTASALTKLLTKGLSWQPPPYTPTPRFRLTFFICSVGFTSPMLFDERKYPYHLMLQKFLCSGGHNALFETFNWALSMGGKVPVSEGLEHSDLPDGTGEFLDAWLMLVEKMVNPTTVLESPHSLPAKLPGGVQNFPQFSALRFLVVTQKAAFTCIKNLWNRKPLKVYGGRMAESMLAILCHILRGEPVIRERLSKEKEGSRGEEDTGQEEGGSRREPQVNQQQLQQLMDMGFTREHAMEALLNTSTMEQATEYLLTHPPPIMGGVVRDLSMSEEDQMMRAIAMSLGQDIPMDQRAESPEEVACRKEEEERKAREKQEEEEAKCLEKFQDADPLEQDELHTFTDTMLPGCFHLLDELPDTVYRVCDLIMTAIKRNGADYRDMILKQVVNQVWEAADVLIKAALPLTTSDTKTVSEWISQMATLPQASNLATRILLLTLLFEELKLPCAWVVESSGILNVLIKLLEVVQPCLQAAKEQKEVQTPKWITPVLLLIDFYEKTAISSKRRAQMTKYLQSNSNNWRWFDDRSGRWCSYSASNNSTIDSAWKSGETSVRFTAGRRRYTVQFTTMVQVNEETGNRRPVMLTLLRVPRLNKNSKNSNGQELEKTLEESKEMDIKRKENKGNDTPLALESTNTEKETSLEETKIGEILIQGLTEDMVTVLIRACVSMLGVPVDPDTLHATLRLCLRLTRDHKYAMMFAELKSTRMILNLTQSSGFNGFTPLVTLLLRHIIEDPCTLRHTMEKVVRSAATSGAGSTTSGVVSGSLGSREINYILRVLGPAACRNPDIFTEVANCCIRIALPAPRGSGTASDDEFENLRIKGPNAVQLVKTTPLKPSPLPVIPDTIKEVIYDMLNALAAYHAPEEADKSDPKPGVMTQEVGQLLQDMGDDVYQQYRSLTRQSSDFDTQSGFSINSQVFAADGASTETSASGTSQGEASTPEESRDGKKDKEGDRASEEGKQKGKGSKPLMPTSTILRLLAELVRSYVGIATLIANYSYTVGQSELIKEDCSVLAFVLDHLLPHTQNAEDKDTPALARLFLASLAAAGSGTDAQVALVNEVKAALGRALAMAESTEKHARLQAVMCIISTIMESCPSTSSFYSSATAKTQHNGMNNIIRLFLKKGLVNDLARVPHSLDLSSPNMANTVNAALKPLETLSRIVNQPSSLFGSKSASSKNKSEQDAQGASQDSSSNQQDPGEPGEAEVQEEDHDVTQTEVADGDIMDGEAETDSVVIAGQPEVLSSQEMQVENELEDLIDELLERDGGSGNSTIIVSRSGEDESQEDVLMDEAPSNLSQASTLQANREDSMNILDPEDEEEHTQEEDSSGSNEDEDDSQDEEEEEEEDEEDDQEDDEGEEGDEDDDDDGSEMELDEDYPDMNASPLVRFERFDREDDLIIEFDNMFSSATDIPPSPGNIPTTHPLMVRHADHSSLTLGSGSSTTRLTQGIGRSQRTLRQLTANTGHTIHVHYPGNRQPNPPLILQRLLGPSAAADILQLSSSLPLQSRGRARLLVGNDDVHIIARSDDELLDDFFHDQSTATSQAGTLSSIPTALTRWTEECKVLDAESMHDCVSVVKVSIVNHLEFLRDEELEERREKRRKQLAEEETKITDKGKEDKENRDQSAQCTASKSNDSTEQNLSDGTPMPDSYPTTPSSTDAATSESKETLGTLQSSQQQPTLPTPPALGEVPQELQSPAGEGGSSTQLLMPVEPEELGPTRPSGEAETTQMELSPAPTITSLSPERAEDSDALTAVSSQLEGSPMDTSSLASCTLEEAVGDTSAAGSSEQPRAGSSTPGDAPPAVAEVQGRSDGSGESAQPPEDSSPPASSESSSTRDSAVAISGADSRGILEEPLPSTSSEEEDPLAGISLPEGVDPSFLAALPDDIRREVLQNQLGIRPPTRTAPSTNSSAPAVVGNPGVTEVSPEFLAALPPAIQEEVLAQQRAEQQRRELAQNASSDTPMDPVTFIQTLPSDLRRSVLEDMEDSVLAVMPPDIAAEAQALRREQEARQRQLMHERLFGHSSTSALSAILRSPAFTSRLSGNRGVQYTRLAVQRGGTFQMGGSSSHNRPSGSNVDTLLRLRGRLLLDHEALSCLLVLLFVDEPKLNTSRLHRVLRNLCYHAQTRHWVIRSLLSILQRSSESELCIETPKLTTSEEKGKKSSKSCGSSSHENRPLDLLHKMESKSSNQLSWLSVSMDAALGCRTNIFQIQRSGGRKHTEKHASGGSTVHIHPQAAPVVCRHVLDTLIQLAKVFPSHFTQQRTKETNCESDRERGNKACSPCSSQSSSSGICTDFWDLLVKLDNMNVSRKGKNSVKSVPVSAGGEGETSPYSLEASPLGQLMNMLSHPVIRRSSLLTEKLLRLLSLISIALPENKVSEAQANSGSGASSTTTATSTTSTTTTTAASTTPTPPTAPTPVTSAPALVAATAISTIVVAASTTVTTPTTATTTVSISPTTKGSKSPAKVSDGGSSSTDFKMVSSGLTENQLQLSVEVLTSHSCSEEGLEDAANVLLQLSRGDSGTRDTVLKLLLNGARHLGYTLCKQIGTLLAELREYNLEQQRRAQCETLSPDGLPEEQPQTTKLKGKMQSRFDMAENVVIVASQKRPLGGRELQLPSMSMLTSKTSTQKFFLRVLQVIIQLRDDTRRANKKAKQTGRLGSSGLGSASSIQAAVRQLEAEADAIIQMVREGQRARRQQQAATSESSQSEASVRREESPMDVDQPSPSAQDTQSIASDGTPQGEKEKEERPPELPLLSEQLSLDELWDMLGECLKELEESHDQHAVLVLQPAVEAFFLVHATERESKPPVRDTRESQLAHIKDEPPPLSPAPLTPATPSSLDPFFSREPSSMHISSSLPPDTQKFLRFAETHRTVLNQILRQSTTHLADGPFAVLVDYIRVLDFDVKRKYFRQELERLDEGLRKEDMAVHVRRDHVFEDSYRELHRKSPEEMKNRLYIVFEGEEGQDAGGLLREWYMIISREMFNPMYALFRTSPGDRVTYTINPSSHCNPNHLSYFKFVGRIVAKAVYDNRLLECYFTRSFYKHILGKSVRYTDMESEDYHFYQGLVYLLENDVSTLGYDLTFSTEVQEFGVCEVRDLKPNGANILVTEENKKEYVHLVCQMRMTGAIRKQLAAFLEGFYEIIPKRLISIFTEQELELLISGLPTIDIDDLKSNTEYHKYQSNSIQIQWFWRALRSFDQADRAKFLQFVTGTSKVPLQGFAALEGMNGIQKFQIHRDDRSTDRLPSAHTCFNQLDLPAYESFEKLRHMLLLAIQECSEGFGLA
UniProt P19474: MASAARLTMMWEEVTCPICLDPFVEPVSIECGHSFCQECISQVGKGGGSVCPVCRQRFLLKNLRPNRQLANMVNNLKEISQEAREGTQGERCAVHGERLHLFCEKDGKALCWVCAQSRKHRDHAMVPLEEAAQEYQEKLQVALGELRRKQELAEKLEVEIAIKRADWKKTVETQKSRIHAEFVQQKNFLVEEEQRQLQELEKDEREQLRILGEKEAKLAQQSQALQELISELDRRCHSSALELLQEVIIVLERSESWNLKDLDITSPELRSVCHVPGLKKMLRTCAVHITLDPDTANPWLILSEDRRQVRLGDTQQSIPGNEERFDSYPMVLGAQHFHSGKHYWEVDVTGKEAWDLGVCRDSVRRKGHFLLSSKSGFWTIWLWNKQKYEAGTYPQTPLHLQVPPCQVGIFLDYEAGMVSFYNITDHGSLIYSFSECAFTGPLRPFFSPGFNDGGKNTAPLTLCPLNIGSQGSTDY

molecular target: T1, 3xFlag-PPDPF (293T cells) (human) (UniProt Q9H3Y8); experiment: affinity purification with mass spectrometry; mass spectrometry analysis using 293T cells expressing 3xFlag-PPDPF
T1 sequence: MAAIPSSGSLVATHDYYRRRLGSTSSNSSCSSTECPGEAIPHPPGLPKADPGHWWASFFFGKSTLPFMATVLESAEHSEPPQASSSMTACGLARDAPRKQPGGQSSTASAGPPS

binding, binds:
CUL4B (from UniProt Q13620 1-913)
HUWE1 (from UniProt Q7Z6Z7 1-4374)
TRIM21 (from UniProt P19474 1-475)

These are yes or no findings as the source states them, for the method shown. In cells and extracts the contact can be indirect. A yes stands for co-enrichment or nearness to the bait. Other partners may have been found. Where a sequence is shown, tags or fusion partners need not be part of it.
